This note sets out measurements from PubChem BioAssay AID1508600 (Functional Genomics Laboratory (NCATS/FGL), 2020).

The campaign covered roughly 53,000 sequences. About 3,700 (7%) were called active.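 Rule for the calls: active = gene knockdowns whose robust z-score for IL-1 alpha signal is at least 2 or at most -2, so actives lie on both sides; inactive = the rest.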 The list shows a part of the results.

This test is described as follows: Components of the Cytosolic LPS Sensing Pathway: Gene Identification via Genome-wide siRNA Screen.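 Note: robust z of the log signal after scaling to non-targeting control siRNA wells of the plate.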 Particulars: RAW264.7 macrophages, IL-1a HTRF, actives lie on both sides, screened at 100 nM (by protocol), cells primed 5 h with Pam3CSK4 first. The method, boiled down:
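Knockdown: 100 nM siRNA, 48h, RAW264.7. Stimulation: Pam3CSK4 5 h, then LipidA via TransIT-TKO 24 h. Output: supernatant IL-1a HTRF, negative-control-normalized, log robust z-score; viability by CellTiter-Glo.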
(In general: In TR-FRET formats the signal depends on donor and acceptor labels being close together.)
Take GGAGGAACCUGAAGAUCUGTT against Bcl2l11: the z-score is inactive: 1.35.

For the sequence CCAUAACAGACCAGAUUCGTT against Gtf2h4, the z-score is inactive: -0.613.

For GCUUGAGUCGUCAAAACUGTT against Mars1, the z-score is inactive: -0.413.

Take GGGCUUUAUACCCUACGAATT against Ceacam13: the z-score was inactive: -0.468.

As to GGAGAGAGUGACCUUAAAUTT against Olfr818, the z-score was inactive: 0.0399.

In the case of GGAGUCUGAUCAAUGGAAUTT against Hsd17b13, the z-score is inactive: 0.747.

With GCCUGGUUUCUCCCUCAAATT against Pkmyt1, the z-score is inactive: -0.567.

As for GAGAGAGAGAGAAAAUCUGTT against Klra1, the z-score was inactive: -0.301.

As for CCCACAAAGAUAGGCCGUGTT against Gm5136, the z-score was inactive: 0.358.

Turning to GCAUACAAGACCGUGAUCATT against Psmc4, the z-score was active: -2.03.

Take GGCAUUCAGAUGACAAUGGTT against C1galt1: the z-score was inactive: -1.43.

For the sequence CCACUCUUACCAAGAAGAGTT against Mog, the z-score is inactive: 0.468.

For GGAUAUAUUGAAAUGCCCATT against Zbtb14, the z-score is inactive: 0.394.

Consider GCGAUUGACUUUUACCGGATT against Naa50, for which the z-score was inactive: 1.22.

Consider GGACAGAAUCACGGUUUCCTT against Gbp8, for which the z-score was inactive: 0.376.

Consider GGCAUCAUCGAUGUUUAUGTT against Acot4, for which the z-score was inactive: -1.14.

On to CCCGUUGCUUUAGAGCUCUTT against Dph2, for which the z-score was inactive: 0.912.

Consider GGUCUUCCUUUUGGUCUUCTT against Olfr1240, for which the z-score is inactive: -0.908.

With GGUUCACAGAGGCUAAGGUTT against Dph1, the z-score is inactive: 0.494.

Consider GCCAUUUCUUACACCUAUATT against Olfr484, for which the z-score is inactive: -1.09.

On to GGAGCAAAUCUUCUGUGUATT against Cdc42ep1, for which the z-score is inactive: 0.889.

Consider GGAGAUUGAAGAGCUCCGATT against Cabp1, for which the z-score is inactive: -0.0021.

As to GCGCAGACUUACAAUUAUUTT against Bms1, the z-score is inactive: 1.06.

Consider GGUAUUCCCUAUGCUUCUCTT against Gpm6a, for which the z-score is inactive: 1.3.

For the sequence GCUUUAAAACAUAUGCCUGTT against Mip, the z-score was inactive: 0.304.

GGACCGCCUUCAACAACAATT against Tpgs1: the z-score is active: 2.68.

For the sequence GCAUCUCAAGACGAUGGAUTT against Akap8l, the z-score is active: 2.3.

For the sequence CCUACAGUACCCAAAAUACTT against Tmem151a, the z-score was inactive: -1.05.

As for GGCAUACAAAUAUUCUUGCTT against H2bu1-ps, the z-score was inactive: 0.366.

For the sequence GGCUAUGGAAACCACCACATT against Nrg3, the z-score was inactive: -1.21.

As to GGAAAGAUUGGAUUUGAAGTT against Zfp318, the z-score was inactive: -0.925.

Take GGACCAGAUUGUGAUUGAUTT against Iftap: the z-score is inactive: -0.145.

Turning to CGUGAACAAUUACUGAGCCTT against Wars2, the z-score is inactive: -0.863.

Regarding CCCACCUGGCUUUUAUUGATT against Olfr1042, the z-score is inactive: -1.24.

For GCCCUUCGUGAUGAAGAAUTT against B4galt3, the z-score was inactive: 0.829.

As for GCUACUAAAAGUAAAUGUCTT against Ugt8a, the z-score was inactive: 0.847.

Take CCAUAUGGAGUUCUCUAUATT against Rpf2: the z-score was inactive: 0.69.

GGACAGUGAAGAGGAUUCCTT against Anapc15: the z-score was inactive: -0.988.

As for CCCAGAUCAGAUUAUUUGGTT against Aldh3b3, the z-score was inactive: -0.641.

As for GGUUAUUCAUUCAAAAUGGTT against Fastkd2, the z-score was inactive: -0.457.

In the case of GCCCAAGGUGAAUCUGUCATT against Trarg1, the z-score was inactive: -1.37.

Turning to GGAACAUGAAGACUAUACATT against Nek5, the z-score was inactive: -0.905.

Consider CGACUUCAUGAAAUACCAATT against Hacd1, for which the z-score is inactive: 0.456.

Regarding GGUGACACAGGAGAAGAAGTT against Colec10, the z-score was inactive: -0.00926.

On to GACAUUGGGACCUUCGAGATT against Cnrip1, for which the z-score is inactive: -0.169.

For the sequence GGAAGAGCACAUCAUUGCATT against Dcpp1, the z-score was inactive: -0.181.

Regarding CGGUUGGUGGCAAUAUCCUTT against Olfr279, the z-score is inactive: -0.0648.

On to “GCCUUUCUCAUUCAGUCUCTT against Vmn1r239-ps”, for which the z-score is inactive: 0.472.

For the sequence GAAGAGAACGCGUUUUUGGTT against Defa5, the z-score was inactive: 0.252.

In the case of GGGAUCAAUUGAGUGUAAUTT against Slc16a10, the z-score is inactive: 0.00951.

For the sequence GCUAACAUUUUAAUGGCCCTT against Pnoc, the z-score was inactive: 0.233.

Take GGCUUCAUUUCUUGAUGAUTT against Cenpc1: the z-score was inactive: -1.2.

As for GGAGAAGAUUGUCAACAUUTT against Cyp1a2, the z-score was inactive: 0.65.

As to GGCCUUUGUAGUAUCCCAGTT against Nudt16, the z-score was inactive: -0.709.

For the sequence GGUGGAAUAUAGCUUCAUCTT against Ifngr2, the z-score is inactive: 1.06.

Take GCAUGUGAUUUCAGGUUGATT against Echdc1: the z-score is inactive: -0.319.

On to GCGAGCUGUACCUUUCUAGTT against Lmo3, for which the z-score was inactive: -0.721.

Take GGACAUAGUCCUUUUUGUUTT against Myod1: the z-score is inactive: -0.788.

As for GGAUUUCCCAUCAAAGACGTT against Serpinf2, the z-score is inactive: 0.155.

Consider GCUGAUUACCUCAGCAGAUTT against Prkd3, for which the z-score is inactive: -1.48.

Turning to GGGUGUCGUUCUGGUUUGUTT against Cltrn, the z-score was inactive: 0.417.

Regarding GGCGCAUUAGCAGAGACUGTT against Mrps5, the z-score was active: 4.17.

Take GCCACUACUACAUCAAUGUTT against Mall: the z-score was inactive: 1.24.

Take GCAGAAUGCUCACGUGGAUTT against Zfp532: the z-score was inactive: 0.928.

On to GGGCUGCUCACAAUUUAUATT against Tmem135, for which the z-score is inactive: 1.17.

For GGAAUUGUGCUGAAAAAGATT against Smim7, the z-score was inactive: -0.66.

“GGAGCUCUCUAUUUAGUUATT against E130114P18Rik”: the z-score was inactive: 0.558.

In the case of GGCAGAAAUUUGGAUACCATT against Plekha4, the z-score was active: 2.1.

For the sequence GGUCUACUUUAGACAACUUTT against Sdc1, the z-score is inactive: 0.373.

On to GGUGGAGAUAAAAAGAGAGTT against Hnrnpu, for which the z-score was inactive: -1.07.

Turning to GGAAUAUACGAGAAAACCUTT against Epha7, the z-score is inactive: -0.382.

As to GGAAUACAUUCCUUUUAAGTT against Gpx3, the z-score is inactive: -1.27.

As for GGAAGGAGAUAUUGUGUUUTT against Sh3rf1, the z-score is inactive: -0.377.

For GGAAGACCUUGUGUUUGCATT against Mmp13, the z-score is inactive: -0.692.

Regarding GCAAUUGAAAGUGAACAAUTT against Olfr1360, the z-score is inactive: -0.935.

In the case of GGAACUUUCAGAAUCAAUGTT against Cdh13, the z-score was inactive: 1.77.

Turning to GGUGAUCCUUAUGCUGUUATT against Ehmt2, the z-score was inactive: 0.305.

With GGACAGCUGUUUCAAUUCUTT against Il1rap, the z-score is inactive: -0.162.

GGAUGCUUGUGAAUAUGCUTT against Olfr346: the z-score was inactive: -0.512.

GGAUUUCAGCGAAGUGUACTT against Mapk11: the z-score is inactive: -0.395.

GAUCCUCUCUAGUACUUGATT against Ldoc1: the z-score is inactive: 0.0278.

On to GGGAGAAGAGGAACAGUUCTT against Slc25a17, for which the z-score is inactive: -0.135.

Regarding GGAUGUACUUAACUGUAAGTT against Dmac1, the z-score was inactive: 1.6.

Turning to “GGAAUAUGGAAGGAAGAGUTT against E130311K13Rik”, the z-score was inactive: 0.782.

Take GGUCUUGCAUGUCUCUGAGTT against Lrrc47: the z-score is inactive: -1.45.

In the case of GGCCCUCAUCUUUGUGUCCTT against Mgll, the z-score was inactive: -1.52.

For GGCUGUGAAUGGAUGGAGGTT against Shpk, the z-score was inactive: -0.908.

On to GGACCCGAAAAUAAUAUAGTT against Rasgef1b, for which the z-score was inactive: 0.816.

Consider GGAGUUUCGGGAGUUCAACTT against Kdm4c, for which the z-score was inactive: 0.87.

For the sequence GGUAGUGUCCCUGUAUUCCTT against Bok, the z-score was inactive: 0.14.

As to GGGAUGUGAAAUGCACCUUTT against Rftn1, the z-score was inactive: -1.03.

Regarding GGAGUUUUACCAGAAGCUGTT against Hs1bp3, the z-score is inactive: -0.438.

As to GGUCUCUUUCCUAUCCAUUTT against Casr, the z-score was inactive: -1.11.

Turning to CAUGAUCGAUACCAUCACATT against Adcy1, the z-score was inactive: -0.858.

As to GGCGUGUGUAAUAAUUUCCTT against Haus4, the z-score is inactive: -0.241.

In the case of CCUUCUGUAGUUGGAAUCATT against Them5, the z-score was inactive: 1.41.

As for GGGAAGACAUGUGAAAAUGTT against Slc17a1, the z-score was inactive: 0.121.

Consider GGAACAAAGGAUGAUAAUUTT against Pbrm1, for which the z-score was inactive: -0.684.

GGAGUCAGUACUGUAAAAUTT against Rin2: the z-score was inactive: -1.91.

Consider GGAAUUGAGUAGCAGCUGATT against Polr2j, for which the z-score was inactive: -0.426.

As to GGAUGUGAGGUGCACCAGATT against Trpv6, the z-score is inactive: -0.833.

For GGAAACAUAAGCAAAAACUTT against Vipr2, the z-score is inactive: 0.092.

Consider CGAGGUCUAUGAGGUAGACTT against Tekt3, for which the z-score is inactive: 0.0946.

With GGUCAUUGCUUCCUAUGGCTT against Mgat1, the z-score was inactive: -0.754.

For the sequence GCUGUAAGCCAAUUAACAUTT against Emp1, the z-score is inactive: 1.06.

GCCUUAGAACUCCUCAUUCTT against Apoo: the z-score was inactive: -1.01.
